Laboratory results from paper PMC8964682, “Structural and biochemical characterization of in vivo assembled Lactococcus lactis CRISPR-Csm complex” (Communications Biology, 2022).
These are yes or no findings as the source states them, for the method shown. For part of these data: In cells and extracts the contact can be indirect. Some results given as binding are weak or reduced against the parent protein; the word gives no strength. For part of these data: Tags and fused reporters may be left off the sequences shown.

T1: Lactococcus lactis Csm2 with N-terminal His6-tag, subunit of the LlCsm complex (Lactococcus lactis) (UniProt L0CFW2)
T1 sequence: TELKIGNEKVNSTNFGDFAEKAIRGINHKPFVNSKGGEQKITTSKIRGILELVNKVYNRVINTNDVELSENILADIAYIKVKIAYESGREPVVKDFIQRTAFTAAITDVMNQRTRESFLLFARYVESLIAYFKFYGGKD

T2: Lactococcus lactis Csm4, subunit of the LlCsm complex (Lactococcus lactis) (UniProt L0CFH1)
T2 sequence: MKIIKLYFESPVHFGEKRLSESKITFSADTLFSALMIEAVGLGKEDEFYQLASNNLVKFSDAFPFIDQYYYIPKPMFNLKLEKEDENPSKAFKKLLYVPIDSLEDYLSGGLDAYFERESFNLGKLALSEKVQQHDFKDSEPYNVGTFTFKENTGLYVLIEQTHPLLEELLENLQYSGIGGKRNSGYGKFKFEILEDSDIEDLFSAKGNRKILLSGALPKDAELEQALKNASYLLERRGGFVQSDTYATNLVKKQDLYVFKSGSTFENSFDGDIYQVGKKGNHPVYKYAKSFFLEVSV

T3: Lactococcus lactis Csm3 Asp30Ala, subunit of the LlCsm (D14N)1(D30A)3 complex (Lactococcus lactis) (UniProt L0CEA3)
T3 sequence: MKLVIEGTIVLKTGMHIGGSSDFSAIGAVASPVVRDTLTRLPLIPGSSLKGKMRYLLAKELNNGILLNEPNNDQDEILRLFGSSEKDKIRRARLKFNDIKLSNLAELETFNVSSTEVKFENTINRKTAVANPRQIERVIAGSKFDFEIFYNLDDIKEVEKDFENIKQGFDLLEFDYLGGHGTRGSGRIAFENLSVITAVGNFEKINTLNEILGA


Assays:
[1] = target: T1, Lactococcus lactis Csm2 with N-terminal His6-tag, subunit of the LlCsm complex (Lactococcus lactis); experiment: cryo-EM structure; co-purified LlCsm (Csm1 D14N, Csm3 D30A)-crRNA incubated with CTR at 1:2, 37 °C, 60 min, then SEC; no ATP; two classes, CTR-43 (3.0 Å) and CTR-32 (3.3 Å); both purified
[2] = target: T2, Lactococcus lactis Csm4, subunit of the LlCsm complex (Lactococcus lactis); experiment: as above
[3] = target: T1, Lactococcus lactis Csm2 with N-terminal His6-tag, subunit of the LlCsm complex (Lactococcus lactis); experiment: cryo-EM structure; apo subpopulation from a mixture of LlCsm with DTR, no DTR bound; 4.5 Å; no model built, used only to confirm presence and placement of the subunits; both purified
[4] = target: T2, Lactococcus lactis Csm4, subunit of the LlCsm complex (Lactococcus lactis); experiment: as above
[5] = target: T2, Lactococcus lactis Csm4, subunit of the LlCsm complex (Lactococcus lactis); experiment: cryo-EM structure; co-purified LlCsm (Csm1 D14N, Csm3 D30A)-crRNA without target RNA (apo); 2.9 Å; both purified
[6] = target: T2, Lactococcus lactis Csm4, subunit of the LlCsm complex (Lactococcus lactis); experiment: cross-linking; CTR- and NTR-bound pre-assembled RNP complexes at ~10 nM, BS3-d0 / BS3-d4 for 60 min, SDS-PAGE, trypsin digestion, LC-MS/MS; abundance of cross-links compared between CTR- and NTR-bound; both purified
[7] = target: T1, Lactococcus lactis Csm2 with N-terminal His6-tag, subunit of the LlCsm complex (Lactococcus lactis); experiment: cryo-EM structure; co-purified LlCsm (Csm1 D14N, Csm3 D30A)-crRNA incubated with NTR at 1:2, 37 °C, 60 min, then SEC; 3.4 Å; both purified
[8] = target: T2, Lactococcus lactis Csm4, subunit of the LlCsm complex (Lactococcus lactis); experiment: as above
[9] = target: T1, Lactococcus lactis Csm2 with N-terminal His6-tag, subunit of the LlCsm complex (Lactococcus lactis); experiment: pull-down + SEC; Cas6, Csm1-6 and crRNA co-expressed in E. coli; N-terminally His-tagged Csm2 as bait; metal-affinity then size-exclusion chromatography in 20 mM HEPES pH 7.5, 200 mM NaCl, 5 mM MgCl2, 14 mM 2-mercaptoethanol; silver-stained gel; the complex carries the 37-nt crRNA
[10] = target: T3, Lactococcus lactis Csm3 Asp30Ala, subunit of the LlCsm (D14N)1(D30A)3 complex (Lactococcus lactis); experiment: cryo-EM structure; co-purified LlCsm (Csm1 D14N, Csm3 D30A)-crRNA incubated with CTR at 1:2, 37 °C, 60 min, then SEC; no ATP; two classes, CTR-43 (3.0 Å) and CTR-32 (3.3 Å); both purified
[11] = target: T3, Lactococcus lactis Csm3 Asp30Ala, subunit of the LlCsm (D14N)1(D30A)3 complex (Lactococcus lactis); experiment: cryo-EM structure; apo subpopulation from a mixture of LlCsm with DTR, no DTR bound; 4.5 Å; no model built, used only to confirm presence and placement of the subunits; both purified
[12] = target: T3, Lactococcus lactis Csm3 Asp30Ala, subunit of the LlCsm (D14N)1(D30A)3 complex (Lactococcus lactis); experiment: cryo-EM structure; co-purified LlCsm (Csm1 D14N, Csm3 D30A)-crRNA without target RNA (apo); 2.9 Å; both purified
[13] = target: T3, Lactococcus lactis Csm3 Asp30Ala, subunit of the LlCsm (D14N)1(D30A)3 complex (Lactococcus lactis); experiment: cryo-EM structure; co-purified LlCsm (Csm1 D14N, Csm3 D30A)-crRNA incubated with NTR at 1:2, 37 °C, 60 min, then SEC; 3.4 Å; both purified

Row | binding [1] | binding [3] | binding [7] | binding [9] | Binder | other results
1 | binds | binds | binds |  | Lactococcus lactis Csm3 Asp30Ala, subunit of the LlCsm (D14N)1(D30A)3 complex (natural protein, Csm3 of the plasmid-encoded (pKLM) Type III-A CRISPR-Cas system of Lactococcus lactis, with the RNase-site mutation D30A; Csm3.1 is the Csm3 copy closest to Csm4; There are four copies in CTR-43, NTR and apo, and three in CTR-32; also called Csm3.1; Csm3.2) MKLVIEGTIVLKTGMHIGGSSDFSAIGAVASPVVRDTLTRLPLIPGSSLKGKMRYLLAKELNNGILLNEPNNDQDEILRLFGSSEKDKIRRARLKFNDIKLSNLAELETFNVSSTEVKFENTINRKTAVANPRQIERVIAGSKFDFEIFYNLDDIKEVEKDFENIKQGFDLLEFDYLGGHGTRGSGRIAFENLSVITAVGNFEKINTLNEILGA | binding [2]: binds; binding [4]: binds; binding [5]: binds; binding [6]: binds; binding [8]: binds
2 |  |  |  | binds | Lactococcus lactis Csm3, wild type, subunit of the LlCsm complex (protein, UniProt L0CEA3 1-214) MKLVIEGTIVLKTGMHIGGSSDFSAIGAVDSPVVRDTLTRLPLIPGSSLKGKMRYLLAKELNNGILLNEPNNDQDEILRLFGSSEKDKIRRARLKFNDIKLSNLAELETFNVSSTEVKFENTINRKTAVANPRQIERVIAGSKFDFEIFYNLDDIKEVEKDFENIKQGFDLLEFDYLGGHGTRGSGRIAFENLSVITAVGNFEKINTLNEILGA | 
3 | binds | binds | binds | binds | Lactococcus lactis Csm5, subunit of the LlCsm complex (protein, UniProt L0CG31 1-352) MKKTYRVTLTALGPIFIGGGEKLKKYEYIFDKQKKVAHMIDHTKFTKYLLEKNLLDDFTSRVNSHFDLYDYLVNKKGIVFMPLVKYSVPVAQFRTEVKNRFGKPISSPPMNDLNTFVKDAFGRPYIPGSSLKGALRTAILNDLKEDTKENEVFAHLQVSDSETIDLENLKVYQKVDYSKTAKPLPLYRECLKPNTEITFTVSFDDEYLTLKKIQNALHKTYQHYYIKWLKGGKVGETLIKGVYDSHADELKKNTFALDQPSQNQGEIIYIGGGAGFVSKTLHYKSKNRDQARNDSFDILKQLFRTTYSKMRSVPDNVPVALKLAVETKTFNGRVTGKHYLEMGKARIKLEEL | binding [10]: binds; binding [11]: binds; binding [12]: binds; binding [13]: binds
4 |  |  |  | binds | Lactococcus lactis Csm4, subunit of the LlCsm complex (protein, UniProt L0CFH1 1-297) MKIIKLYFESPVHFGEKRLSESKITFSADTLFSALMIEAVGLGKEDEFYQLASNNLVKFSDAFPFIDQYYYIPKPMFNLKLEKEDENPSKAFKKLLYVPIDSLEDYLSGGLDAYFERESFNLGKLALSEKVQQHDFKDSEPYNVGTFTFKENTGLYVLIEQTHPLLEELLENLQYSGIGGKRNSGYGKFKFEILEDSDIEDLFSAKGNRKILLSGALPKDAELEQALKNASYLLERRGGFVQSDTYATNLVKKQDLYVFKSGSTFENSFDGDIYQVGKKGNHPVYKYAKSFFLEVSV | 
